The values are deposited in ChEMBL (CHEMBL3988442, “University of Dundee, Small-Polar-MMV Screening Library” (2021)).

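Whole-parasite assay of Trypanosoma brucei over 72 hours; the read-out is not stated. Compounds at 30 µM. The record gives no direction; compounds that gave an IC50 in retests scored well above the rest, so higher reads as stronger inhibition. Values scatter widely below zero; nearly all retest evidence comes from the higher of the two concentrations used. About 64,000 compounds were tested under these conditions; 1.5% (about 940) showed 50% or more at least once.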

Each number is a percent effect as filed. The controls that fix the scale are not given in the record; negative values are as filed. This is an unselected part of the compounds tested.

compound | percent effect
Cc1ccc2oc(C(=O)N3CCCC(n4nc(C)cc4C)C3)cc2n1 (stereo not shown) | 7.973
CCN1CCC(CNC(=O)Nc2cnn(CC(N)=O)c2)C1 (stereo not shown) | -71.34
CC(C)(C)c1c[nH]c([C@@H]2COCCN2C2CCC2)n1 | 1.47
Cc1ccc(N2CC3(COCCN(Cc4nccs4)C3)OCC2=O)s1.O=C(O)C(F)(F)F (stereo not shown) | -26.9
Cc1cccc(N2CC3(COCCN(c4ccncn4)C3)OCC2=O)c1 (stereo not shown) | -19
O=C1COc2cc(S(=O)(=O)NCCC3=CCCCC3)c(Cl)cc2N1 | -25.81
Cc1cc(C(=O)NCc2ccc(N3CCCC(C(N)=O)C3)cc2)[nH]n1 (stereo not shown) | -21.68
O=C1CC2(CCN(Cc3ccsc3)C2)CN1c1ccc2c(c1)OCO2 (stereo not shown) | -6.708
CCS(=O)(=O)c1ccccc1C(=O)N1CCCC(n2cccn2)C1 (stereo not shown) | -8.156
CN1CC(=O)N(c2ccccc2)CC12CCN(Cc1nccn1C)C2.O=C(O)C(F)(F)F.O=C(O)C(F)(F)F (stereo not shown) | -33.78
CN(C)c1ccc(NC(=O)C2CN(Cc3ccccc3)CCO2)cn1 (stereo not shown) | 40.47
Cc1cncc(C(=O)N2CCNCC2C(=O)NCc2ccncc2)c1 (stereo not shown) | -4.629
CCC(C)C(=O)Nc1ccc(CCN2CCOCC2)cc1 (stereo not shown) | -44.13
CC(C)c1ccc(/C=C/CC(=O)NC2CCN(C(N)=O)CC2)cc1 | -46.13
CN(C(=O)Cc1ccccc1Cl)C1CCN(c2ccccn2)CC1 | 20.76
CC(C)C(=O)N1CCCC(Cc2ccccn2)C1 (stereo not shown) | -12
Cc1nccn1CCN(C)c1cc(C(C)C)nc2ccnn12 | -6.135
[H][C@]12CC[C@]([H])(CN(S(=O)(=O)c3cccc(Cl)c3)C1)N(CCC)C2=O | -12.81
Cc1csc(CNC(=O)NCC(O)c2ccccc2)n1 (stereo not shown) | -26.37
Cc1nc(C)c(CC(=O)N2CCN(CC(C)C)CC2)c(=O)[nH]1 | -39.5
Cc1ccc(N2CCCN(CC3CC3)C(C(C)C)C2)nn1 (stereo not shown) | -15.16
O=c1n(CCSCCOc2ccc(Br)cc2)nc2ccccn12 | -11.25
O=C(c1ccc(-c2ccccc2)[nH]c1=O)N1CCCn2ncnc21 | -3.975
Cc1cccc(-c2nc(CN3CCc4c(ncn4C)C3)no2)c1 | -33.89
Cc1cnn(CCNCC(=O)NC2(C#N)CCCC2)c1 | -6.558
CCSc1cc(C(=O)NC2CCN(C(=O)c3ccncc3)CC2)ccn1 | 1.066
Cc1cc(C)c(CNC(=O)N2CCN(c3cnccn3)CC2)c(=O)[nH]1 | -4.961
NCCn1nc(C2CCN(Cc3ccccc3)C2)c2nccnc21 (stereo not shown) | 20.75
CN1CCCCC1C(=O)N1CCN(c2ccccc2C#N)CC1 (stereo not shown) | 8.146
CS(=O)(=O)NC1CCN(C(=O)c2ccc3ccccc3c2)C1 (stereo not shown) | -65.84
CC(C)N(CC(N)=O)Cc1csc(-c2ncccn2)n1 | -22.59
NCCn1cc(C(=O)N2CCCCCC2c2cccc(F)c2)nn1 (stereo not shown) | -7.629
[H][C@@]12CS(=O)(=O)C[C@]1([H])N(C(=O)c1[nH]c3ccccc3c1Cl)CCN2CC | -17.04
N#Cc1c2n(c3c(=O)[nH]cnc13)CCCCC2 | -29.17
Cc1noc(C)c1C(=O)NCCN1CCN(c2ccccc2)CC1 | -10.36
COc1ncccc1NC(=O)N1CCC(c2ccc(O)cc2)CC1 | -10.17
Cc1ccccc1CN1CCC(CNC(=O)Cn2cncn2)CC1 | -59.6
OCCCN(CCc1cccc(F)c1)C1CC1 | -38.87
COc1ccccc1OCCNC(=O)NCC(C)C | -35.69
CCN(C)c1ncnc2c1CCN(C(=O)N1CCOCC1)CC2 | -20.41
CC(C)[C@H]1CN(C(=O)CC2CCC2)C[C@@H]1N(C)C | -22.53
CCc1nc(CN2CCCN(C(=O)CCc3ccco3)CC2)cs1 | 8.757
COc1ccccc1NC(=O)NCc1nnc(SC)n1C | 5.403
Cc1cc(C)nc(N2CCN(Cc3cc4n(n3)CCNC4)CC2)n1 | -5.206
CC(CN1CCOCC1)NC(=O)N1CCCC1 (stereo not shown) | -31.9
Cn1ncc(N2CCC(CNC3CC(c4ccccc4)C3)CC2)cc1=O (stereo not shown) | -31.72
Cc1cc(CNc2ccc(CC(=O)N(C)c3ccccc3)cc2)no1 | -20.85
CN(C)c1ncc(I)c(C2CCCCN2S(C)(=O)=O)n1 (stereo not shown) | 1.583
Cc1cn(-c2ccccc2)nc1NS(=O)(=O)c1cc(C(=O)O)sc1C | -6.793
O=C(NCc1cc[nH]n1)N1CCCC(N2CCCC2)C1 (stereo not shown) | -23.86
CC(C)(C)CNC(=O)c1ccc(C(=O)O)cc1 | 0.377
COc1ccc(Br)cc1CCC(=O)N1CCSCC1 | -38.72
O=C(O)C(F)(F)F.[H][C@]12CCN(C(=O)c3cccc(OC)c3)CC[C@@]1([H])S(=O)(=O)CCN2C | -67.81
CCCNC(=O)N1CCc2ccc(S(=O)(=O)N3CCOCC3)cc2C1 | -12.13
CN1CCCC1CNC(=O)CCCOCc1ccccc1 (stereo not shown) | -40.03
CC1(C)Oc2ccc(S(=O)(=O)NCCCn3ccnc3)cc2NC1=O | -42
CC(C)(C)n1ncc(NCC(O)c2ccccc2C(F)(F)F)c(Cl)c1=O (stereo not shown) | -1.118
O=C(O)C(F)(F)F.[H][C@@]12CCCO[C@]1([H])[C@@H](OC)CN2CC1CCOCC1 | -10.57
O=C(CN1CC(n2cccn2)C1)NCCCN1CCCC1=O | -17.42
[H][C@@]12CCN(C(=O)CCc3ccc(Cl)cc3)C[C@]1([H])OCCNC2=O | -22.59
CCN(Cc1nonc1C)C(=O)c1cnccn1 | 20.76
CCCSc1ncc(Cl)c(C(=O)NC(CCSC)C(=O)O)n1 (stereo not shown) | -12.25
Cc1ccc(N2CCCC(N(C)Cc3cc(C)no3)C2)nn1 (stereo not shown) | -0.9019
Cn1cc(-c2nnc3sc(C4CC4)nn23)cn1 | -3.305
c1ncn(CC2CCCN(Cc3cn4ccsc4n3)C2)n1 (stereo not shown) | -2.9
CCN1CCN(c2ccc(C(=O)NC(C)c3ccncc3)cc2)CC1 (stereo not shown) | -5.563
Cc1cc(C)n(CC(=O)NC2CCCCNC2=O)n1 (stereo not shown) | -26.32
COc1ccc(CN2CCC3(CC(Nc4ccncn4)C3)C2)c(OC)c1 (stereo not shown) | 40.96
O=C(c1ccc(-c2nc[nH]n2)cc1)N1CCOC(C(F)(F)F)C1 (stereo not shown) | -13.36
[H][C@]12CC[C@]([H])(CN(S(=O)(=O)N(C)C)C1)N(C(=O)c1sc(CC)nc1C)C2 | -16.63
Cn1ccc2c(C(=O)NCC3(C(N)=O)CCOCC3)cccc21 | -39.59
CCN(C)C(=O)c1cnc(-c2noc3cc(N4CCCCC4)ccc23)s1 | -47.2
CC(CNC(=O)c1c[nH]nn1)Oc1cccc(Br)c1 (stereo not shown) | -45.88
Cc1cc(C(=O)N2CCCN(Cc3cnn(C)c3)CC2)no1 | 3.272
Cc1nc(CC(=O)N(CCN2CCOCC2)Cc2ccco2)c(C)s1 | -18.04
[H][C@]12CC[C@]([H])(CN(C(=O)c3ccccn3)C1)N(C(=O)CN1CCOC1=O)C2 | -7.586
CCc1cnc(C)nc1NCC(O)CN1CCCCCC1 (stereo not shown) | -23.34
Cc1noc(COCC(=O)Nc2ncccc2Br)n1 | 5.807
Oc1nc(C2CC2)nc2c1nnn2C1CCN(Cc2ccoc2)CC1 | 15.03
CN(CC(=O)NS(=O)(=O)c1ccc(F)cc1)Cc1ccccc1 | -6.568
Nc1nc2c(c(N3CCCC(c4nnc5ccccn45)C3)n1)CCNC2 (stereo not shown) | 10.81
N#Cc1ccccc1C(=O)N1C[C@@H](CN2CCCCCC2)[C@@H](CO)C1 | -23.35
Cc1ccc(CNC2CCc3[nH]c(=O)ccc3C2)cc1C.O=C(O)C(F)(F)F (stereo not shown) | -39.09
CS(=O)(=O)c1ccc(-c2cnc(C3CCCN3)cn2)cc1.Cl (stereo not shown) | -27.05

The first 10 entries again:

{"compound": "Cc1ccc2oc(C(=O)N3CCCC(n4nc(C)cc4C)C3)cc2n1", "stereo": "stereo not shown", "percent effect": 7.973}
{"compound": "CCN1CCC(CNC(=O)Nc2cnn(CC(N)=O)c2)C1", "stereo": "stereo not shown", "percent effect": -71.34}
{"compound": "CC(C)(C)c1c[nH]c([C@@H]2COCCN2C2CCC2)n1", "percent effect": 1.47}
{"compound": "Cc1ccc(N2CC3(COCCN(Cc4nccs4)C3)OCC2=O)s1.O=C(O)C(F)(F)F", "stereo": "stereo not shown", "percent effect": -26.9}
{"compound": "Cc1cccc(N2CC3(COCCN(c4ccncn4)C3)OCC2=O)c1", "stereo": "stereo not shown", "percent effect": -19}
{"compound": "O=C1COc2cc(S(=O)(=O)NCCC3=CCCCC3)c(Cl)cc2N1", "percent effect": -25.81}
{"compound": "Cc1cc(C(=O)NCc2ccc(N3CCCC(C(N)=O)C3)cc2)[nH]n1", "stereo": "stereo not shown", "percent effect": -21.68}
{"compound": "O=C1CC2(CCN(Cc3ccsc3)C2)CN1c1ccc2c(c1)OCO2", "stereo": "stereo not shown", "percent effect": -6.708}
{"compound": "CCS(=O)(=O)c1ccccc1C(=O)N1CCCC(n2cccn2)C1", "stereo": "stereo not shown", "percent effect": -8.156}
{"compound": "CN1CC(=O)N(c2ccccc2)CC12CCN(Cc1nccn1C)C2.O=C(O)C(F)(F)F.O=C(O)C(F)(F)F", "stereo": "stereo not shown", "percent effect": -33.78}